Reference: patent publication US20260159575A1
No constants are given. Whether binding was seen depends on the method and setting. Some binding calls cover weakened binding; strength is not graded here.

Amino acid sequences for entries named in this document (tags omitted). Residues count along the entry.
UniProt P10636, residues 561-685: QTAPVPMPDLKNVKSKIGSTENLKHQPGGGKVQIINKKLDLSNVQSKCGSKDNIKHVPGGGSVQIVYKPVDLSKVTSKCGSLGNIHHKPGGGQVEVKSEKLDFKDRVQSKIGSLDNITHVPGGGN

Target: MTBR-tau (human) (UniProt P10636)
Assay: target engagement in human CSF after IV dosing; E2814-bound and free MTBR-tau proxy peptide concentrations measured

B1: antibody E2814 (antibody, human IgG1, kappa, V domains shown)
VH: EVQLLESGGGLVQPGGSLRLSCAASGYTFTTYWITWVRQAPGKGLEWVSDIYPGSSISNYNEKFKSRFTISVDNSKNTLYLQMNSLRAEDTAVYYCAREDGYDAWFAYWGQGTLVTVSS
VL: DIQMTQSPSSLSASVGDRVTITCRSSQSILHSNGNTYLEWYQQKPGKAPKLLISKVSNRFSGVPSRFSGSGSGTDFTLTISSLQPEDFATYYCFQGSHVPFTFGQGTKLEIKR
With B1 the binding was “binds”.
